# According to publication PMC7819943, “Rice protein-binding microarrays: a tool to detect cis-acting elements near promoter regions in rice”:
# The list shows a part of the results.
# Target: T1, OsSMF1 (Oryza sativa, UniProt Q6ZLB0 1-436)
# T1 sequence: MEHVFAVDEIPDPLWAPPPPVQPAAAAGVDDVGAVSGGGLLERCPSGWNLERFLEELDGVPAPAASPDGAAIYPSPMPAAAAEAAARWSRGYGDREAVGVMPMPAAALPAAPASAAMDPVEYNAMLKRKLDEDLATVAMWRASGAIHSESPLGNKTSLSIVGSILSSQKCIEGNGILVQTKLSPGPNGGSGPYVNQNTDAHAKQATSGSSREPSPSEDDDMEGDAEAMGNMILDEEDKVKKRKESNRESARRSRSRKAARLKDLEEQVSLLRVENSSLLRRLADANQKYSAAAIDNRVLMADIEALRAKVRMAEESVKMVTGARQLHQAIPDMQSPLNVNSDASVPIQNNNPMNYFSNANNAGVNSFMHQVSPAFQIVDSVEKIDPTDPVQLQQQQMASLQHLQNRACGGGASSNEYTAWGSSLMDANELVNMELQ
# Experiment: protein-binding microarray (RPBM); PBS, 2% BSA, 51.3 ng/ul salmon testes DNA, 50 uM zinc acetate, 200 nM TF, 25 C, 1 h; high values mean tight binding
# Details: protein: recombinant; tags: N-terminal polyhistidine and DsRed monomer fusion (pET32a); chain copies: 2; label: CyDye5-dUTP incorporated in the synthesized complementary strand; 3' TTTTT single-stranded linker to array surface; dsDNA, one strand shown
# How it was run: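 Per-feature fluorescence intensity (arbitrary units), read on an Axon 4000B scanner, is the binding signal. Transcription factors carrying an N-terminal polyhistidine tag and DsRed fusion were expressed in E. coli BL21-CodonPlus and purified on Ni–NTA. A custom Agilent array, made double-stranded by primer extension with Cy5-dUTP and blocked with 2% BSA, was incubated with 200 nM protein in PBS, 2% BSA, salmon testes DNA and 50 µM zinc acetate at 25 °C for 1 h and then washed.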
row,Sequence,binding signal
1,GGAGCTGAGGAGGGACAGCGAGCCAGCGAGGGAGGTGGGGCGGAGTCACCTAGTGCAG,3160 fluorescence intensity (a.u.)
2,AGGGAATTACCAGCTGTAAATGATATGGAGGAATTTGAATCGGAGTCACCTAGTGCAG,4140 fluorescence intensity (a.u.)
3,ACCCACACATCATTCTCTCTTTTCTCTATCCCTCTCTATCCGGAGTCACCTAGTGCAG,3960 fluorescence intensity (a.u.)
4,CTGAGGGACCTAAAGTAAACGGTTTTGTAAGTTGAGATGGCGGAGTCACCTAGTGCAG,35300 fluorescence intensity (a.u.)
5,AACCGCGCACCCGTGGCGGTCAACTCGACCGGCTCCAACCCGGAGTCACCTAGTGCAG,3330 fluorescence intensity (a.u.)
6,GACACACGTCACTTCTCAACACGGTCTCCCTCTCTGCCTCCGGAGTCACCTAGTGCAG,8560 fluorescence intensity (a.u.)
7,CACGGCGTGTGCACGGACATGCAGTACTGCTGCCCTGACTCGGAGTCACCTAGTGCAG,3490 fluorescence intensity (a.u.)
8,TTACGATCACCGAAAAGTGGTAGCGTACGTGTTGAGTGTGCGGAGTCACCTAGTGCAG,4140 fluorescence intensity (a.u.)
9,GATGAAGAGGAAGAGGAGACAGTGCTCGACACGCCTGCAGCGGAGTCACCTAGTGCAG,4180 fluorescence intensity (a.u.)
10,AAAATCCAAAGCTGCTGGGGTCAGCTCAGCTCGAACCCTGCGGAGTCACCTAGTGCAG,3210 fluorescence intensity (a.u.)
11,TCGTATAGGTCCACGAGGGCGGGACCAGCTGTAACCGTGACGGAGTCACCTAGTGCAG,4400 fluorescence intensity (a.u.)
12,GAGCTTCATCAGGACTGGTGGGTAAGCCCCATCATCTTGACGGAGTCACCTAGTGCAG,3200 fluorescence intensity (a.u.)
13,ATACAAAACTAGAAACAAGACATACCAACATCACAACATGCGGAGTCACCTAGTGCAG,26100 fluorescence intensity (a.u.)
14,TGTTCCATGGATATACATGTCATATACTTATTTTCTAGCCCGGAGTCACCTAGTGCAG,3930 fluorescence intensity (a.u.)
15,TGCAAGCCCCGCTGAGCTGCACATGACTAGGACCCTATTTCGGAGTCACCTAGTGCAG,8240 fluorescence intensity (a.u.)
16,CCGTCTCCACGCACTCGAACGTCACCGACGACCCCGGCAGCGGAGTCACCTAGTGCAG,5490 fluorescence intensity (a.u.)
17,CTGCCAAGTAGGGTCCTGCTTGCTGAGGTCATACCCCACGCGGAGTCACCTAGTGCAG,3560 fluorescence intensity (a.u.)
18,AAGGTAGGTTGTAGAACTGATGATCTGTCAATGGTGAAATCGGAGTCACCTAGTGCAG,4940 fluorescence intensity (a.u.)
19,CCATTAATTTCTACGTAAGCATTCGTAGCTATGGAGGAGTCGGAGTCACCTAGTGCAG,4530 fluorescence intensity (a.u.)
20,CGGGGAGAGTCCGCCGCAGCGCCAGCGCATTCGGCGACACCGGAGTCACCTAGTGCAG,3890 fluorescence intensity (a.u.)
21,TCACGTTGAAGTGACTAGATGGGAACTAATATTTTATTGCCGGAGTCACCTAGTGCAG,4230 fluorescence intensity (a.u.)

# Taken from the listing for reference:
row,Sequence,binding signal
5,AACCGCGCACCCGTGGCGGTCAACTCGACCGGCTCCAACCCGGAGTCACCTAGTGCAG,3330 fluorescence intensity (a.u.)
6,GACACACGTCACTTCTCAACACGGTCTCCCTCTCTGCCTCCGGAGTCACCTAGTGCAG,8560 fluorescence intensity (a.u.)
7,CACGGCGTGTGCACGGACATGCAGTACTGCTGCCCTGACTCGGAGTCACCTAGTGCAG,3490 fluorescence intensity (a.u.)

# (further entries)

row,Sequence,binding signal
1,ATTGGGTGCTTCTTCCAACCCCATCAGCTTGGCAATGACACGGAGTCACCTAGTGCAG,3450 fluorescence intensity (a.u.)
2,TGACGGGGTTTGGTCTCATCTTTCGTGGTCAGATTTGCCGCGGAGTCACCTAGTGCAG,4730 fluorescence intensity (a.u.)
3,ACTGGCTAGCAAAACGAAGTATTGTGCAGTTTGGCGGGAACGGAGTCACCTAGTGCAG,35100 fluorescence intensity (a.u.)
4,TCAAGTGATTTTGCCTAGACACAAGAGTCCACGTGGTTGGCGGAGTCACCTAGTGCAG,7160 fluorescence intensity (a.u.)
5,GCAAAATAGGCTTATTCCATGACGAATGCTTCTCTCCCCGCGGAGTCACCTAGTGCAG,3330 fluorescence intensity (a.u.)
6,AGGGACGAGCCGGGCGGACAAGAGGACGACAGCACGCGAGCGGAGTCACCTAGTGCAG,33400 fluorescence intensity (a.u.)
7,ACCAGTGGGCGCCACGCCATGAACAGCTCAGCTCACCGCACGGAGTCACCTAGTGCAG,5150 fluorescence intensity (a.u.)
8,GAGAGGTCTGCCCCGTGGTCAAGCCGTGCCGCGTCGTCGTCGGAGTCACCTAGTGCAG,4650 fluorescence intensity (a.u.)
9,GACTGACTCCATGTCGCGACTAATCACACGTCAGGATCGACGGAGTCACCTAGTGCAG,8650 fluorescence intensity (a.u.)
10,AATATAATCTTCGAGGAATCTATGATGTGGCAGCTAAGGACGGAGTCACCTAGTGCAG,13500 fluorescence intensity (a.u.)
11,TACTGGAGTGCAAAATTGCCATAAATTTTGCCAAGTATGCCGGAGTCACCTAGTGCAG,3620 fluorescence intensity (a.u.)
12,GTGGTACTACTACGTACGCGGAGTAATATTTGTTTTAGTACGGAGTCACCTAGTGCAG,3510 fluorescence intensity (a.u.)
13,TGACATGTGAGCCCAATGTGTCAGCAACATTAGCAACGATCGGAGTCACCTAGTGCAG,7750 fluorescence intensity (a.u.)
14,AACATCCATCACTGCAGCAAATCATCATCATCATCATCATCGGAGTCACCTAGTGCAG,4660 fluorescence intensity (a.u.)
15,GAGAGAGAGAGAGAGGGGAGGGGAGGGCGTGTGCTCGCGCCGGAGTCACCTAGTGCAG,5190 fluorescence intensity (a.u.)
16,GCCTCGCTGACGCCGCCGGCGGCGCGCGCGCCGTCTCCCTCGGAGTCACCTAGTGCAG,4140 fluorescence intensity (a.u.)
17,ACGAATCGTGACGTCCGCCGTGTCGCGAGGCGAGAGGGGCCGGAGTCACCTAGTGCAG,3870 fluorescence intensity (a.u.)
18,TTCCCGAGGATATATAATCGATCATGCTACACGTGACATACGGAGTCACCTAGTGCAG,3240 fluorescence intensity (a.u.)
19,CACCGACCACCGCCACGCGCTGCTCCACCACCGCGTCCTCCGGAGTCACCTAGTGCAG,3540 fluorescence intensity (a.u.)
20,ATGAGGGGTCGGGGTTGGGCGGCGTGGGCACGGGCTCGAGCGGAGTCACCTAGTGCAG,4600 fluorescence intensity (a.u.)
21,AACGGAGCGTGACGCAACGCAAGTTACGCAACACGGTCGCCGGAGTCACCTAGTGCAG,4000 fluorescence intensity (a.u.)
